Experimental data published in US6908884B2, “Benzazolonylcarbonylcyclohexenones and their use as herbicides” (BASF Aktiengesellschaft, priority 2000, dated 2005).
The name of at least one read-out is uncertain.

What was measured:
Assay in all cases: greenhouse post-emergence herbicidal test
ECHCG = assay type: in vivo, barnyard grass
Description: (§1) The seeds of the test plants were sown separately for each species. For the post-emergence treatment, the test plants were first grown to a plant height of from 3 to 15 cm, depending on the plant habit, and only then treated with the active compounds which had been suspended or emulsified in water. To this end, the test plants were either sown directly and grown in the same containers, or they were first grown separately as seedlings and transplanted into the test containers a few days prior to treatment. […] Depending on the species, the plants were kept at from 10 to 25° C., or 20-35° C., respectively. The test period extended over 2 to 4 weeks. During this time, the plants were tended, and their response to the individual treatments was evaluated. Evaluation was carried out using a scale of from 0 to 100. 100 means no emergence of the plants, or complete destruction of at least the aerial parts, and 0 means no damage, or normal course of growth. A damage of at least 95% corresponds to very good herbicidal action. The plants used in the greenhouse experiments were of the following species: [table]

CHEAL = assay type: in vivo, lambs' quarters (goose-foot)
Description: as §1

POLPE = assay type: in vivo, lady's thumb
Description: The seeds of the test plants were sown separately for each species. For the post-emergence treatment, the test plants were first grown to a plant height of from 3 to 15 cm, depending on the plant habit, and only then treated with the active compounds which had been suspended or emulsified in water. To this end, the test plants were either sown directly and grown in the same containers, or they were first grown separately as seedlings and transplanted into the test containers a few days prior to treatment. The rate of application for the post-emergence treatment was 250, 125, 62.5, 31.3 and/or 15.6 g/ha of active substance (a.s.). Depending on the species, the plants were kept at from 10 to 25° C., or 20-35° C., respectively. The test period extended over 2 to 4 weeks. During this time, the plants were tended, and their response to the individual treatments was evaluated. Evaluation was carried out using a scale of from 0 to 100. 100 means no emergence of the plants, or complete destruction of at least the aerial parts, and 0 means no damage, or normal course of growth. A damage of at least 95% corresponds to very good herbicidal action. The plants used in the greenhouse experiments were of the following species: [table]

SMILES	herbicidal action against ECHCG (ECHCG; 125 or 250 g/ha (a.s.))	herbicidal action against CHEAL (CHEAL; 125 or 250 g/ha (a.s.))	herbicidal action against POLPE (POLPE; 125 or 250 g/ha (a.s.))	herbicidal action against CHEAL (CHEAL; 125 or 62.5 g/ha (a.s.))	herbicidal action against ECHCG (ECHCG; 125 or 62.5 g/ha (a.s.))	herbicidal action against POLPE (POLPE; 125 or 62.5 g/ha (a.s.))
CCCCn1c(=O)oc2ccc(C(=O)C3=C(O)CCCC3=O)c(C)c21 [Compound I-1a.6]	very good herbicidal action (A damage of at least 95% corresponds to very good herbicidal action)	very good herbicidal action (A damage of at least 95% corresponds to very good herbicidal action)	very good herbicidal action (A damage of at least 95% corresponds to very good herbicidal action)			
C=CCn1c(=O)oc2ccc(C(=O)C3=C(O)CCCC3=O)c(C)c21 [Compound I-1a.29]	very good herbicidal action (A damage of at least 95% corresponds to very good herbicidal action)	very good herbicidal action (A damage of at least 95% corresponds to very good herbicidal action)	very good herbicidal action (A damage of at least 95% corresponds to very good herbicidal action)			
Cc1c(C(=O)C2=C(O)CCCC2=O)ccc2sc(=O)n(C)c12 [Compound I-1a.1129, 3,4-dimethyl-5-(1′,3′-cyclohexanedion-2′-yl)carbonylbenzothiazol-2-one]				very good herbicidal action (A damage of at least 95% corresponds to very good herbicidal action)		
CCn1c(=O)sc2ccc(C(=O)C3=C(O)CCCC3=O)c(C)c21 [Compound I-1a.1131]	very good herbicidal action (A damage of at least 95% corresponds to very good herbicidal action)	very good herbicidal action (A damage of at least 95% corresponds to very good herbicidal action)	very good herbicidal action (A damage of at least 95% corresponds to very good herbicidal action)			
Cc1c(C(=O)C2=C(O)CC(C)(C)CC2=O)ccc2sc(=O)n(C)c12 [Compound I-1c.1129, 3,4-dimethyl-5-(5′,5′-dimethyl-1′,3′-cyclohexanedion-2′-yl)-carbonylbenzothiazol-2-one]				very good herbicidal action (A damage of at least 95% corresponds to very good herbicidal action)	very good herbicidal action (A damage of at least 95% corresponds to very good herbicidal action)	very good herbicidal action (A damage of at least 95% corresponds to very good herbicidal action)
CCn1c(=O)sc2ccc(C(=O)C3=C(O)CC(C)(C)CC3=O)c(C)c21 [Compound I-1c.1131]	very good herbicidal action (A damage of at least 95% corresponds to very good herbicidal action)	very good herbicidal action (A damage of at least 95% corresponds to very good herbicidal action)	very good herbicidal action (A damage of at least 95% corresponds to very good herbicidal action)			
CCn1c(=O)sc2ccc(C(=O)C3=C(O)C(C)(C)C(=O)C(C)(C)C3=O)c(C)c21 [Compound I-1d.1131]	very good herbicidal action (A damage of at least 95% corresponds to very good herbicidal action)	very good herbicidal action (A damage of at least 95% corresponds to very good herbicidal action)				
CCCCn1c(=O)sc2ccc(C(=O)C3=C(O)C(C)(C)C(=O)C(C)(C)C3=O)c(C)c21 [Compound I-1d.1134]	very good herbicidal action (A damage of at least 95% corresponds to very good herbicidal action)		very good herbicidal action (A damage of at least 95% corresponds to very good herbicidal action)			
CCn1c(=O)sc2ccc(C(=O)C3=C(O)C4CCC(C4)C3=O)c(C)c21 (stereo not shown) [Compound I-1x.1131]	very good herbicidal action (A damage of at least 95% corresponds to very good herbicidal action)	very good herbicidal action (A damage of at least 95% corresponds to very good herbicidal action)	very good herbicidal action (A damage of at least 95% corresponds to very good herbicidal action)			
CCCCn1c(=O)sc2ccc(C(=O)C3=C(O)C4CCC(C4)C3=O)c(C)c21 (stereo not shown) [Compound I-1x.1134]	very good herbicidal action (A damage of at least 95% corresponds to very good herbicidal action)	very good herbicidal action (A damage of at least 95% corresponds to very good herbicidal action)				
